Measurements taken from PubChem BioAssay AID248 (DTP/NCI, 2004).
The list is a part of this screen's results and no random one: it is rich in T/C values a quarter to a half above the control, in often repeated tests (any T/C) and in doses without a T/C. Other doses and runs of a compound stand elsewhere. T/C is the treated group as % of the vehicle group. Some entries give survivors of the animals treated and no T/C: the source holds a T/C of zero for them, seemingly a mark for toxic or unscored doses. Some doses without a T/C left all or most animals alive at the check, yet need not have been tolerated: the source hardly ever lists a survival T/C far under the control, and the zero likely stands for such cases as well. Counts of survivors are from the toxicity check (mostly the fifth day) where no day follows; animals may have died later. Schedules are NCI's codes, read here as Q, the interval in days (D) or hours (H), X, the number of doses. Some schedules carry Z or #; the key to these is not given. Some entries hold several experiments; the values are given in rising order. Where survival is the endpoint, this PubChem deposit counts one and a half times the control or more as active, and values a quarter to a half above the control carry no call in these data; other NCI protocols may use other cut-offs. Some T/C values carry the count of animals alive at the toxicity check (mostly the fifth day); without a count, all were alive then.

System: L1210 leukemia ip in BDF1 mice, survival T/C
Test: NCI In Vivo Anticancer Drug Screen. Data for tumor model L1210 Leukemia (intraperitoneal) in B6D2F1 (BDF1) mice
Conditions: higher T/C = longer survival
[1] = T/C endpoint: mean survival time, dose: 200.0 mg/kg/injection, schedule: Q04DX003 (ip), vehicle: saline
[2] = T/C endpoint: mean survival time, dose: 400.0 mg/kg/injection, schedule: Q04DX003 (ip), vehicle: saline
[3] = T/C endpoint: mean survival time, dose: 200.0 mg/kg/injection, schedule: Q04DX003 (ip), vehicle: saline with Tween-80
[4] = T/C endpoint: mean survival time, dose: 400.0 mg/kg/injection, schedule: Q04DX003 (ip), vehicle: saline with Tween-80

C[n+]1c2ccccc2nc2c(N)cc(N)cc21
T/C (T/C endpoint: mean survival time, dose: 10.0 mg/kg/injection, schedule: Q#A X030 (ip), vehicle: water): 139 % of control | T/C (T/C endpoint: mean survival time, dose: 10.0 mg/kg/injection, schedule: Q#A X Z (ip), vehicle: water): 134 % of control | T/C (T/C endpoint: mean survival time, dose: 15.0 mg/kg/injection, schedule: Q#A X Z (ip), vehicle: carboxymethylcellulose (CMC)): 130 % of control [5 of 6 alive] | T/C (T/C endpoint: mean survival time, dose: 15.0 mg/kg/injection, schedule: Q#A X Z (ip), vehicle: water): 145 % of control | survivor count (T/C endpoint: mean survival time, dose: 16.0 mg/kg/injection, schedule: Q01DX007 (iv), vehicle: saline): 3 of 6 | T/C (T/C endpoint: mean survival time, dose: 18.0 mg/kg/injection, schedule: Q01DX Z (ip), vehicle: saline): 139 % of control | T/C (T/C endpoint: mean survival time, dose: 20.0 mg/kg/injection, schedule: Q01DX009 (ip), vehicle: saline): 133 % of control | T/C (T/C endpoint: mean survival time, dose: 20.0 mg/kg/injection, schedule: Q01DX Z (ip), vehicle: carboxymethylcellulose (CMC)): 132 % of control [4 of 6 alive] | T/C (T/C endpoint: mean survival time, dose: 25.0 mg/kg/injection, schedule: Q01DX001 (ip), vehicle: water): 109, 115, 118, 130 % of control | survivor count (T/C endpoint: mean survival time, dose: 26.4 mg/kg/injection, schedule: Q03DX Z (ip), vehicle: carboxymethylcellulose (CMC)): 3 of 6 | survivor count (T/C endpoint: mean survival time, dose: 30.0 mg/kg/injection, schedule: Q01DX Z (ip), vehicle: carboxymethylcellulose (CMC)): 2 of 6 | survivor count (T/C endpoint: mean survival time, dose: 32.0 mg/kg/injection, schedule: Q01DX007 (iv), vehicle: saline): 0 of 6 | T/C (T/C endpoint: mean survival time, dose: 32.0 mg/kg/injection, schedule: Q01DX009 (ip), vehicle: saline): 127 and 135 % of control | survivor count (T/C endpoint: mean survival time, dose: 32.0 mg/kg/injection, schedule: Q03HX008 (ip), vehicle: saline): 3 of 10 | T/C (T/C endpoint: mean survival time, dose: 32.0 mg/kg/injection, schedule: Q03HX024 (ip), vehicle: saline): 129 % of control | survivor count (T/C endpoint: mean survival time, dose: 33.75 mg/kg/injection, schedule: Q#A X Z (ip), vehicle: water): 3 of 6 | survivor count (T/C endpoint: mean survival time, dose: 39.9 mg/kg/injection, schedule: Q03DX Z (ip), vehicle: carboxymethylcellulose (CMC)): 2 of 6 | survivor count (T/C endpoint: mean survival time, dose: 40.0 mg/kg/injection, schedule: Q01DX009 (ip), vehicle: saline): 0 of 6 | survivor count (T/C endpoint: mean survival time, dose: 40.0 mg/kg/injection, schedule: Q01DX Z (im), vehicle: saline): 2 of 6 | survivor count (T/C endpoint: mean survival time, dose: 50.6 mg/kg/injection, schedule: Q#A X Z (ip), vehicle: water): 0 of 6 | survivor count (T/C endpoint: mean survival time, dose: 60.0 mg/kg/injection, schedule: Q03DX Z (ip), vehicle: carboxymethylcellulose (CMC)): 0 of 6 | survivor count (T/C endpoint: mean survival time, dose: 64.0 mg/kg/injection, schedule: Q01DX009 (sc), vehicle: saline): 5 of 10 | survivor count (T/C endpoint: mean survival time, dose: 64.0 mg/kg/injection, schedule: Q03HX016 (ip), vehicle: saline): 3 of 10 | T/C (T/C endpoint: mean survival time, dose: 64.0 mg/kg/injection, schedule: Q04DX003 (ip), vehicle: saline): 130 % of control | T/C (T/C endpoint: mean survival time, dose: 80.0 mg/kg/injection, schedule: Q01DX Z (oral), vehicle: saline): 126 % of control [4 of 6 alive] | survivor count (T/C endpoint: mean survival time, dose: 90.0 mg/kg/injection, schedule: Q03DX Z (ip), vehicle: carboxymethylcellulose (CMC)): 0 of 6 | survivor count (T/C endpoint: mean survival time, dose: 100.0 mg/kg/injection, schedule: Q01DX001 (ip), vehicle: water): 1 of 6 | survivor count (T/C endpoint: mean survival time, dose: 128.0 mg/kg/injection, schedule: Q01DX001 (ip), vehicle: saline): 5 of 10 | survivor count (T/C endpoint: mean survival time, dose: 128.0 mg/kg/injection, schedule: Q01DX009 (ip), vehicle: saline): 0 of 10 | survivor count (T/C endpoint: mean survival time, dose: 128.0 mg/kg/injection, schedule: Q01DX009 (sc), vehicle: saline): 0 of 10 | survivor count (T/C endpoint: mean survival time, dose: 128.0 mg/kg/injection, schedule: Q01DX Z (sc), vehicle: steroid suspending solution): 1 of 6 | survivor count (T/C endpoint: mean survival time, dose: 128.0 mg/kg/injection, schedule: Q04DX003 (ip), vehicle: saline): 6 of 10 | survivor count (T/C endpoint: mean survival time, dose: 160.0 mg/kg/injection, schedule: Q01DX Z (oral), vehicle: saline): 1 of 6 | survivor count (T/C endpoint: mean survival time, dose: 200.0 mg/kg/injection, schedule: Q01DX001 (ip), vehicle: water): 0 of 6 and 1 of 6 | survivor count (T/C endpoint: mean survival time, dose: 210.0 mg/kg/injection, schedule: Q07DX Z (ip), vehicle: carboxymethylcellulose (CMC)): 1 of 6 | survivor count (T/C endpoint: mean survival time, dose: 256.0 mg/kg/injection, schedule: Q01DX001 (ip), vehicle: saline): 0 of 10 | survivor count (T/C endpoint: mean survival time, dose: 256.0 mg/kg/injection, schedule: Q04DX003 (ip), vehicle: saline): 0 of 10 | survivor count (T/C endpoint: mean survival time, dose: 512.0 mg/kg/injection, schedule: Q01DX001 (sc), vehicle: saline): 5 of 10 | survivor count (T/C endpoint: mean survival time, dose: 648.0 mg/kg/injection, schedule: Q01DX Z (oral), vehicle: other): 5 of 6 | survivor count (T/C endpoint: mean survival time, dose: 972.0 mg/kg/injection, schedule: Q01DX Z (oral), vehicle: other): 5 of 6 | survivor count (T/C endpoint: mean survival time, dose: 1024.0 mg/kg/injection, schedule: Q01DX009 (oral), vehicle: saline): 6 of 10 | T/C (T/C endpoint: median survival time, dose: 10.0 mg/kg/injection, schedule: Q01DX009 (ip), vehicle: saline): 133 % of control | T/C (T/C endpoint: median survival time, dose: 20.0 mg/kg/injection, schedule: Q01DX009 (ip), vehicle: saline): 130 and 140 % of control

NC(=O)CNC(=O)C(CSCc1ccccc1)NC(=O)OCc1ccccc1 (stereo not given)
survivor count (T/C endpoint: mean survival time, dose: 200.0 mg/kg/injection, schedule: Q04DX003 (ip), vehicle: Klucel (hydroxypropylcellulose) (HPC)): 6 of 6 | survivor count (T/C endpoint: mean survival time, dose: 400.0 mg/kg/injection, schedule: Q04DX003 (ip), vehicle: Klucel (hydroxypropylcellulose) (HPC)): 6 of 6

[NH-]CC(=O)[N-]CC(=O)O.[NH-]CC(=O)[N-]CC(=O)O.[Ni]
survivor count (T/C endpoint: mean survival time, dose: 50.0 mg/kg/injection, schedule: Q01DX009 (ip), vehicle: saline): 3 of 6 | survivor count (T/C endpoint: mean survival time, dose: 100.0 mg/kg/injection, schedule: Q01DX009 (ip), vehicle: saline): 0 of 6 | survivor count [1]: 1 of 6 | survivor count [2]: 1 of 6

CC1NC=NC1C(c1ccccc1)c1ccccc1 (stereo not given)
survivor count [3]: 1 of 6 | survivor count [4]: 1 of 6

CC1CC2(C)C(CC1=O)CC(C)C1C2CCC2(C)C1CCC2(C)O (stereo not given)
survivor count (T/C endpoint: mean survival time, dose: 400.0 mg/kg/injection, schedule: Q01DX009 (ip), vehicle: saline with Tween-80): 4 of 6

O=C(CCCC(=O)N/N=C/c1cccc(Cl)c1)N/N=C\c1cccc(Cl)c1
survivor count (T/C endpoint: mean survival time, dose: 200.0 mg/kg/injection, schedule: Q01DX001 (ip), vehicle: other): 4 of 4

COc1cc(/C=c2\[nH]c(=O)/c(=C/c3cc(OC)c(OC)c(OC)c3)[nH]c2=O)cc(OC)c1OC
survivor count (T/C endpoint: mean survival time, dose: 200.0 mg/kg/injection, schedule: Q01DX009 (ip), vehicle: Klucel (hydroxypropylcellulose) (HPC)): 6 of 6

CCN(CC)c1ccc(N(C(C)=O)C(C)=O)cc1
survivor count (T/C endpoint: mean survival time, dose: 100.0 mg/kg/injection, schedule: Q04DX003 (ip), vehicle: saline with Tween-80): 6 of 6 | survivor count [3]: 1 of 6 | survivor count [4]: 0 of 6

CCCCCCCCCCCCCCCCCC(=O)OCC(O)COC(C)=O (stereo not given)
survivor count (T/C endpoint: mean survival time, dose: 50.0 mg/kg/injection, schedule: Q01DX009 (ip), vehicle: saline with Tween-80): 3 of 3

CC(C)(C)C1=CC(=O)C(C#N)=C(C#N)C1=O
survivor count [1]: 2 of 6 | survivor count [2]: 0 of 6

CN(CCC[N+](C)(C)C)C(=O)C(c1ccccc1)c1ccccc1
survivor count [1]: 2 of 6 | survivor count [2]: 0 of 6

CC(=O)OC1C(C(=O)O)CC(C(=O)O)C1OC(C)=O (stereo not given)
T/C (T/C endpoint: mean survival time, dose: 200.0 mg/kg/injection, schedule: Q01DX001 (ip), vehicle: saline): 142 % of control

Cc1cc(C)c(CSC(=N)N)c(C)c1
survivor count (T/C endpoint: mean survival time, dose: 200.0 mg/kg/injection, schedule: Q04DX002 (ip), vehicle: Klucel (hydroxypropylcellulose) (HPC)): 2 of 3 | survivor count (T/C endpoint: mean survival time, dose: 400.0 mg/kg/injection, schedule: Q04DX002 (ip), vehicle: Klucel (hydroxypropylcellulose) (HPC)): 0 of 3

N#Cc1nc2c(nc1C#N)CCCC2
survivor count (T/C endpoint: mean survival time, dose: 50.0 mg/kg/injection, schedule: Q04DX003 (ip), vehicle: Klucel (hydroxypropylcellulose) (HPC)): 6 of 6 | survivor count (T/C endpoint: mean survival time, dose: 100.0 mg/kg/injection, schedule: Q01DX001 (ip), vehicle: Klucel (hydroxypropylcellulose) (HPC)): 2 of 6 | survivor count (T/C endpoint: mean survival time, dose: 100.0 mg/kg/injection, schedule: Q04DX003 (ip), vehicle: Klucel (hydroxypropylcellulose) (HPC)): 5 of 6 | survivor count (T/C endpoint: mean survival time, dose: 200.0 mg/kg/injection, schedule: Q01DX001 (ip), vehicle: Klucel (hydroxypropylcellulose) (HPC)): 0 of 6 | survivor count (T/C endpoint: mean survival time, dose: 400.0 mg/kg/injection, schedule: Q01DX001 (ip), vehicle: Klucel (hydroxypropylcellulose) (HPC)): 0 of 6
